For one molecule, binding results are on record in PMC11102862.

The experiment has as its target T1, 3xFLAG_TEV_SBP-tagged CD2BP2 (human) (UniProt O95400).
T1 sequence: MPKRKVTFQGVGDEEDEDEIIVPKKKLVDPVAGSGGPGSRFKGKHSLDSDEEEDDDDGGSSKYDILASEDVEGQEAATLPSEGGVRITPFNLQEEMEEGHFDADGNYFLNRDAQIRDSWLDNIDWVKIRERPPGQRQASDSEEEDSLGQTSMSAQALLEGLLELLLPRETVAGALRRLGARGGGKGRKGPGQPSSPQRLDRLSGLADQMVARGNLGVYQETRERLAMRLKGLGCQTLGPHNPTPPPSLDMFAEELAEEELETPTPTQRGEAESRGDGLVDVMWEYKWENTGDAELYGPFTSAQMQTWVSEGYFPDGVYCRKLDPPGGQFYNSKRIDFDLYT
As to the kind of experiment: affinity purification with mass spectrometry; 3xFLAG_TEV_SBP-CD2BP2 as bait from 293-F nuclear extract adjusted to 500 mM KCl; anti-FLAG M2 gel, TEV elution, streptavidin agarose, biotin elution; composition by solution mass spectrometry (Extended Data Table 1), members also seen in the cryo-EM map of the same preparation.

These are yes or no findings as the source states them, for the method shown. In cells and extracts the contact can be indirect. These calls come from enrichment with a bait or labelling near it, and not all partners need be listed. Sequences can lack the tags named with a protein.

B1: PRP6 (protein, UniProt O94906 1-941)
chain: MNKKKKPFLGMPAPLGYVPGLGRGATGFTTRSDIGPARDANDPVDDRHAPPGKRTVGDQMKKNQAADDDDEDLNDTNYDEFNGYAGSLFSSGPYEKDDEEADAIYAALDKRMDERRKERREQREKEEIEKYRMERPKIQQQFSDLKRKLAEVTEEEWLSIPEVGDARNKRQRNPRYEKLTPVPDSFFAKHLQTGENHTSVDPRQTQFGGLNTPYPGGLNTPYPGGMTPGLMTPGTGELDMRKIGQARNTLMDMRLSQVSDSVSGQTVVDPKGYLTDLNSMIPTHGGDINDIKKARLLLKSVRETNPHHPPAWIASARLEEVTGKLQVARNLIMKGTEMCPKSEDVWLEAARLQPGDTAKAVVAQAVRHLPQSVRIYIRAAELETDIRAKKRVLRKALEHVPNSVRLWKAAVELEEPEDARIMLSRAVECCPTSVELWLALARLETYENARKVLNKARENIPTDRHIWITAAKLEEANGNTQMVEKIIDRAITSLRANGVEINREQWIQDAEECDRAGSVATCQAVMRAVIGIGIEEEDRKHTWMEDADSCVAHNALECARAIYAYALQVFPSKKSVWLRAAYFEKNHGTRESLEALLQRAVAHCPKAEVLWLMGAKSKWLAGDVPAARSILALAFQANPNSEEIWLAAVKLESENDEYERARRLLAKARSSAPTARVFMKSVKLEWVQDNIRAAQDLCEEALRHYEDFPKLWMMKGQIEEQKEMMEKAREAYNQGLKKCPHSTPLWLLLSRLEEKIGQLTRARAILEKSRLKNPKNPGLWLESVRLEYRAGLKNIANTLMAKALQECPNSGILWSEAIFLEARPQRRTKSVDALKKCEHDPHVLLAVAKLFWSQRKITKAREWFHRTVKIDSDLGDAWAFFYKFELQHGTEEQQEEVRKRCESAEPRHGELWCAVSKDIANWQKKIGDILRLVAGRIKNTF
Take B1: the binding result was “binds”.
